Values from PubChem BioAssay AID504804 (Drosophila RNAi Screening Center, 2011).
Purpose: 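Knock-downs shielding fly cells from apoptosis caused by DNA damage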 (primary screen). Cell system: Drosophila Kc cells. Reagents: long dsRNA against Drosophila genes, 0.5 µg dsRNA per well. Time to read-out: 96 h (48 h knock-down, then 48 h drug). Conditions: doxorubicin 5 µg/ml for 48 h, added 48 h after dsRNA. Read-out: 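Viability measured as cellular ATP by luminescence after 48 h knock-down then 48 h doxorubicin at 5 µg/ml; unnormalised plate counts for each replicate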. Direction: raw ATP luminescence: higher = more viable cells, protection from doxorubicin. Hit rule: 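Active when both duplicate wells lie at least 2 SD above the plate mean and protection is confirmed by rescreening and independent dsRNAs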.
The screen tested about 19,000 reagents; shown is an unselected part of those with a known target gene and a result. Of all reagents, 47 (0.25%) were called active. 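Signals are raw, not normalised; exact z-scores behind calls not deposited; actives needed confirmation, so some wells reaching 2 SD are inactive.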 A number with no mark means an inactive call. Names joined by + are all predicted targets of the reagent.

| Target gene | dsRNA | SD above plate mean | raw ATP luminescence, replicate 1 | raw ATP luminescence, replicate 2 |
| --- | --- | --- | --- | --- |
| CR42785 (pseudo) | DRSC04962 | – | 93103 | 1.08e5 |
| CG4483 | DRSC10426 | – | 2.05e5 | 1.78e5 |
| Ubc6 (Ubiquitin conjugating enzyme 6) | DRSC12370 | – | 28777 | 30687 |
| Dera (Deoxyribose-phosphate aldolase) | DRSC07207 | – | 69210 | 67463 |
| Nckx30C | DRSC02686 | – | 37857 | 54367 |
| Nckx30C | DRSC02687 | – | 41847 | 75357 |
| Nckx30C | DRSC02688 | – | 45963 | 46473 |
| Nckx30C | DRSC02689 | – | 25503 | 49833 |
| CG42521 | DRSC10154 | – | 69687 | 61240 |
| Fancd2 | DRSC15208 | – | 71050 | 70050 |
| CG12436 (retired record) | DRSC09869 | – | 50330 | 38957 |
| CG12436 (retired record) | DRSC09885 | – | 36987 | 29797 |
| CG12128 + CG1407 | DRSC06446 | – | 62597 | 49853 |
| CG34223 | DRSC05268 | – | 1.13e5 | 1.20e5 |
| pic (piccolo) | DRSC16639 | – | 38760 | 22330 |
| CG15153 | DRSC02454 | – | 57897 | 63793 |
| CG9967 | DRSC00742 | – | 50020 | 58333 |
| Trax (Translin associated factor X) | DRSC15709 | – | 56217 | 35303 |
| CG14673 (retired record) | DRSC12259 | – | 61893 | 61783 |
| Pisd (Phosphatidylserine decarboxylase) | DRSC15935 | – | 43923 | 47957 |
| CG12522 | DRSC09088 | – | 1.55e5 | 1.19e5 |
| CG10445 | DRSC14247 | – | 69187 | 59930 |
| TTLL4B (Tubulin tyrosine ligase-like 4B) | DRSC00636 | – | 83977 | 63703 |
| CG15715 | DRSC10216 | – | 94530 | 57593 |
| CG15317 | DRSC18005 | – | 3.64e5 | 3.41e5 |
| Samtor (S-adenosylmethionine sensor upstream of TORC1) | DRSC04390 | – | 68543 | 54410 |
| MTPAP (mitochondrial poly(A) polymerase) | DRSC18585 | – | 34250 | 62080 |
| CG12725 | DRSC19501 | – | 2.30e5 | 3.02e5 |
| CG5793 | DRSC15874 | – | 46240 | 85860 |
| nis | DRSC00290 | – | 91790 | 78960 |
| Ir40a (Ionotropic receptor 40a) | DRSC03732 | – | 68187 | 53867 |
| Ir40a (Ionotropic receptor 40a) | DRSC03733 | – | 62523 | 67343 |
| Cyp4ac3 (Cytochrome P450 4ac3) | DRSC03304 | – | 1.16e5 | 99567 |
| CG6583 | DRSC02972 | – | 69450 | 68443 |
| egg (eggless) | DRSC04119 | – | 52417 | 37720 |
| luna | DRSC05253 | – | 67080 | 75417 |
| luna | DRSC06663 | – | 14057 | 17693 |
| luna | DRSC07336 | – | 46183 | 95730 |
| Epac (Exchange protein directly activated by cAMP) | DRSC04969 | – | 1.71e5 | 2.02e5 |
| Epac (Exchange protein directly activated by cAMP) | DRSC04996 | – | 73077 | 51290 |
| Epac (Exchange protein directly activated by cAMP) | DRSC04997 | – | 32593 | 67680 |
| egh (egghead) | DRSC18771 | at least 2 SD above plate mean | 79970 | 78710 |
| Stam (Signal transducing adaptor molecule) | DRSC03444 | – | 98537 | 63827 |
| CG10252 | DRSC14221 | – | 37620 | 45413 |
| CG4004 | DRSC19882 | – | 3.22e5 | 3.31e5 |
| CG7778 | DRSC03067 | – | 94870 | 68010 |
| CG11790 | DRSC14390 | – | 39667 | 71710 |
| mfr (misfire) | DRSC10543 | – | 71207 | 76067 |
| CG13531 | DRSC04173 | – | 58303 | 49943 |
| Or2a (Odorant receptor 2a) | DRSC18690 | – | 56590 | 49920 |
| Coq5 (Coenzyme Q5) | DRSC19849 | – | 4.13e5 | 3.65e5 |
| CG15602 | DRSC19671 | – | 3.29e5 | 2.81e5 |
| ens (ensconsin) | DRSC08454 | – | 40397 | 41100 |
| CG42402 | DRSC21116 | – | 3.49e5 | 3.28e5 |
| CG6843 | DRSC10725 | – | 66510 | 53933 |
| UGP (UDP-glucose pyrophosphorylase) | DRSC10411 | – | 39723 | 31357 |
| CG31510 | DRSC14182 | – | 66010 | 62470 |
| Tsp5D (Tetraspanin 5D) | DRSC18380 | – | 54550 | 62090 |
| phol (pleiohomeotic like) | DRSC10367 | – | 25787 | 21340 |
| Ran | DRSC20364 | – | 3.95e5 | 4.09e5 |
| Wnt10 (Wnt oncogene analog 10) | DRSC00990 | – | 2.84e5 | 3.11e5 |
| Wnt10 (Wnt oncogene analog 10) | DRSC02797 | – | 31447 | 28513 |
| CG5280 | DRSC10498 | – | 69293 | 79013 |
| CG33116 | DRSC02045 | – | 89517 | 82210 |
| mth (methuselah) | DRSC08725 | – | 60913 | 70420 |
| CG11668 | DRSC14341 | – | 54540 | 65730 |
| Mf (Myofilin) | DRSC16120 | – | 1.15e5 | 66460 |
| CG13978 | DRSC14720 | – | 54430 | 58900 |
| CG31675 | DRSC01825 | – | 74087 | 81167 |
| Lac (Lachesin) | DRSC07452 | – | 60457 | 54473 |
| ClpP (Caseinolytic protease proteolytic subunit) | DRSC02806 | – | 89853 | 61293 |
| pyd3 | DRSC15459 | – | 39983 | 44713 |
| mRpS6 (mitochondrial ribosomal protein S6) | DRSC08470 | – | 59297 | 78850 |
| CG6403 | DRSC16033 | – | 62250 | 52210 |
| CG11425 | DRSC11657 | – | 63037 | 58970 |
| pie (pineapple eye) | DRSC03590 | – | 67220 | 57813 |
| Sdhaf3 (Succinate dehydrogenase assembly factor 3) | DRSC15020 | – | 1.07e5 | 85860 |
| CG34210 | DRSC04579 | – | 53330 | 50560 |
| ebd1 (earthbound 1) | DRSC08565 | – | 83280 | 62517 |
| Acp29AB (Accessory gland protein 29AB) | DRSC01857 | – | 28053 | 57100 |
| CG10481 | DRSC02063 | – | 39947 | 43613 |
| Iris | DRSC00663 | – | 96127 | 70170 |
| nAChRbeta2 (nicotinic Acetylcholine Receptor beta2) | DRSC17010 | – | 39067 | 44960 |
| Glut3 (Glucose transporter type 3) | DRSC16681 | – | 56830 | 64550 |
| CG11825 | DRSC06090 | – | 45590 | 61877 |
| PNUTS (Phosphatase 1 nuclear targeting subunit) | DRSC00638 | – | 94210 | 54070 |
| Gr66a (Gustatory receptor 66a) | DRSC10783 | – | 70307 | 69567 |
| Grx3 (Glutaredoxin 3) | DRSC02966 | – | 1.03e5 | 61317 |
| CG14042 + SP555 | DRSC02367 | – | 22693 | 23937 |
| CG14042 + SP555 | DRSC03428 | – | 24003 | 30643 |
| Urod (Uroporphyrinogen decarboxylase) | DRSC07569 | – | 43443 | 63343 |
| CG4066 | DRSC15541 | – | 56197 | 46470 |
| Rcc1 (Regulator of chromosome condensation 1) | DRSC09684 | – | 50317 | 30713 |
| chb (chromosome bows) | DRSC11469 | – | 50957 | 65403 |
| Ref1 (RNA and export factor binding protein 1) | DRSC12497 | – | 53097 | 20613 |
| CG9521 | DRSC20196 | – | 3.61e5 | 3.09e5 |
| CG11741 | DRSC14367 | – | 57233 | 63010 |
| UGP + PGRP-LF | DRSC10418 | – | 74307 | 64560 |
| Cyt-c1L (Cytochrome c1-like) | DRSC14860 | – | 34380 | 31380 |
| Lcp65Aa | DRSC11209 | – | 86533 | 83220 |
| CG42322 | DRSC15112 | – | 49817 | 47060 |
| CG42322 | DRSC15113 | at least 2 SD above plate mean | 96800 | 1.06e5 |
| CG42322 | DRSC15114 | – | 54180 | 50970 |
| CG18528 | DRSC15340 | – | 49900 | 48680 |
| CG6678 | DRSC16092 | – | 65047 | 44520 |
| CG17564 | DRSC02626 | – | 64373 | 64783 |
| CG11241 | DRSC11641 | 2 to 3 SD above plate mean (active) | 50257 | 42770 |

Entries above whose target name begins with G or g (3):
| Target gene | dsRNA | SD above plate mean | raw ATP luminescence, replicate 1 | raw ATP luminescence, replicate 2 |
| --- | --- | --- | --- | --- |
| Glut3 (Glucose transporter type 3) | DRSC16681 | – | 56830 | 64550 |
| Gr66a (Gustatory receptor 66a) | DRSC10783 | – | 70307 | 69567 |
| Grx3 (Glutaredoxin 3) | DRSC02966 | – | 1.03e5 | 61317 |
